{"source": "paper PMC10945337", "about": "(Theranostics, 2024)", "tested_on": "tumor lesions over organs at risk", "assay": "Individual therapeutic index (TI) and relative therapeutic index (rTI)", "format": "in vivo, human", "conditions": "mean ± SD, 6 patients", "data": [{"substance": "[^177Lu]Lu-PSMA-617", "values": [{"measurement": "Mean TI-kidney", "setting": "mean tumor-absorbed dose over kidney dose", "result": "5.28 ± 5.13"}, {"measurement": "Mean TI-parotid", "setting": "mean tumor-absorbed dose over parotid gland dose", "result": "12.51 ± 18.09"}]}]}
